Binding data for two molecules are collected here from article PMC3335779.

Results are given in words; binding and its absence hold for the method and conditions named. In cells and extracts the contact can be indirect. Binding calls can cover weak binding; strength is not graded here.

The target of assay [1] is T1, secreted protein acidic and rich in cysteine (SPARC) (mouse (endogenous in murine eyes)) (UniProt P07214).
T1 sequence: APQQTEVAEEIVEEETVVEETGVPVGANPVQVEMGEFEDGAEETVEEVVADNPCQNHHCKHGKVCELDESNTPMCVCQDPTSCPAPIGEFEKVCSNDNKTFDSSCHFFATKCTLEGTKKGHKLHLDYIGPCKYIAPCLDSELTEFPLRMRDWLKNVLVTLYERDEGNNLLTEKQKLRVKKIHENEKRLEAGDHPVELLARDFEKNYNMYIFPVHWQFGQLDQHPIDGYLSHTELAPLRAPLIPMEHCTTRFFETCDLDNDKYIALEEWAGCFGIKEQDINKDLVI
Description: co-IP; mouse eye lysate in IP buffer (0.1% SDS, 0.5% sodium deoxycholate, protease inhibitors); antibody (anti-Pax6, anti-TGF-β or anti-SPARC) on protein-G resin, 60 min at 4 °C with lysate; immunoblot with ECL detection; negative control: protein-G slurry without primary antibody.

Assay [2] concerns the target transforming growth factor-beta (TGF-β) (mouse (endogenous in murine eyes)). Described as above.

For the molecule “transforming growth factor-beta (TGF-β) (mouse (endogenous in murine eyes))”, the binding entry in assay [1] was “binds”.

B1: secreted protein acidic and rich in cysteine (SPARC) (protein, UniProt P07214 18-302)
chain: T1 sequence
With B1, in assay [2], the binding entry is on record as “binds”.
